Source: PubChem BioAssay AID493014 (National Center for Advancing Translational Sciences (NCATS), 2011)
The list shows a part of the results. Further columns of the screen follow, without active or inactive calls. Compounds called inactive in the main read-out are mostly missing here. The note in brackets gives the kind of curve behind each potency; many fits are weak.

Experiment: qHTS Assay to Find Inhibitors of Chronic Active B-Cell Receptor Signaling
Details: ABC-DLBCL IkBa-CBG/CBR reporter, luminescence ratio (green luciferase fused to IkBa over red control in TMD8 lymphoma cells), 4 h
Procedure, shortened: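 TMD8 ABC-DLBCL cells carrying doxycycline-inducible green luciferase fused to IkappaBalpha plus unfused red luciferase were exposed to compounds (up to 46 uM) for 4 hrs at 37C. Activity came from the overlap-corrected green/red luminescence ratio.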

[1] = measured here: CBR red luminescence, cell number
[2] = measured here: IkBa-CBG green luminescence

Row | SMILES | AC50 [1] | AC50 [2]
1 | COc1ccc(C2C(CC(=O)O)=C(Nc3ccccc3)C(=O)N2c2ccccc2)cc1 (configuration not stated) | 10 µM [falling, partial curve, poor fit] | 
2 | O=C(NC1CCCCCC1)c1cccc(S(=O)(=O)N2CCOCC2)c1 | 2.59 µM [rising, full curve] | 
3 | Cc1cccc(C)c1-n1c(=O)n(Cc2ccccc2)c(=O)c2[nH]cnc21 | 5.62 µM [rising, single point] | 
4 | COc1ccc(NC(=O)CN(C)CC(=O)Nc2cccc(C(C)=O)c2)cc1 | 1 µM [rising, partial curve, poor fit] | 
5 | Cc1ccc(N=Cc2c(O)n(-c3nccs3)c(=O)c3ccccc23)c(C)c1 | 32.6 µM [falling, partial curve, poor fit] | 
6 | O=C(Nc1cccc(-c2nn[nH]n2)c1)c1ccc(Cl)s1 | 20 µM [falling, single point] | 
7 | COc1ccc(-c2sc3ccccc3c2C#CCO)cc1 | 0.794 µM [rising, full curve, poor fit] | 
8 | COc1ccccc1/C=C\C(=O)NCC(=O)N/N=C(/C)c1cccc([N+](=O)[O-])c1 | 35.5 µM [falling, single point] | 
9 | CCCc1cc(C(=O)NCc2cccs2)no1 | 17.8 µM [falling, single point] | 
10 | COCc1cc(C)nc2sc(C(=O)NC3CCCCC3)c(N)c12 | 20.6 µM [falling, partial curve] | 
11 | COc1cccc(/C=C2\SC(=S)N(CC3CCCO3)C2=O)c1 (configuration not stated) | 18.4 µM [rising, single point] | 
12 | CC[n+]1c(C)sc2cc(OC)ccc21 | 35.5 µM [falling, single point] | 
13 | COc1cc(C)ccc1OCCCON1C(=O)CCC1=O | 1.84 µM [rising, full curve] | 
14 | CCN(CC)c1cc(Cl)c2nonc2c1N | 14.1 µM [rising, single point] | 
15 | COc1cc(C(=O)N2CCN(C3CCC(C)CC3)CC2)cc(OC)c1OC (configuration not stated) | 35.5 µM [falling, partial curve, poor fit] | 
16 | O=C(CCC1CCCCC1)Nc1ccccc1-c1ccccc1 | 35.5 µM [rising, single point] | 
17 | Cc1cccc(NC(=S)N(CCCN2CCCC2)Cc2cccn2Cc2ccc(Cl)cc2)c1 | 17.8 µM [falling, partial curve, poor fit] | 
18 | COc1cc(/C=N/N2C(=O)CSC2=S)cc(Br)c1O | 35.5 µM [rising, partial curve, poor fit] | 
19 | CCCCc1ccc(NC(=O)CSCc2cc(=O)[nH][nH]2)cc1 | 29.1 µM [rising, single point] | 
20 | CCOc1ncccc1C(=O)N=C1SCCN1C(=O)c1cccnc1OCC | 25.1 µM [falling, single point] | 
21 | C(=NC12CN3CN(CN(C3)C1)C2)c1ccc2c(c1)OCO2 | 0.092 µM [falling, full curve, poor fit] | 
22 | O=C(Nc1ccc(N2CCOCC2)c(C(=O)O)c1)c1ccc(Br)cc1 | 35.5 µM [falling, single point] | 

2 compounds picked at random from the list so far:
Row | SMILES | AC50 [1] | AC50 [2]
7 | COc1ccc(-c2sc3ccccc3c2C#CCO)cc1 | 0.794 µM [rising, full curve, poor fit] | 
20 | CCOc1ncccc1C(=O)N=C1SCCN1C(=O)c1cccnc1OCC | 25.1 µM [falling, single point] | 

Going on with the list:

Row | SMILES | AC50 [1] | AC50 [2]
23 | CCOc1ncccc1C(=O)Nc1cccc(S(=O)(=O)N2CCOCC2)c1 | 10.3 µM [falling, partial curve, poor fit] | 
24 | C/C(=N\NC(=O)CSCc1ccccc1Cl)c1cc(O)ccc1O | 22.4 µM [falling, single point] | 
25 | COc1ccc(NC(=S)N(CCCN2CCCC2)Cc2cccn2Cc2ccc(Cl)cc2)cc1Cl | 17.8 µM [falling, single point] | 
26 | O=C(NC1CCCC1)c1ccc2c(c1)N(Cc1ccc(F)cc1)CCS2 | 15.8 µM [falling, partial curve, poor fit] | 
27 | CC12CCC(=O)C=C1CCC1C2C(=O)CC2(C)C1CCC2(O)C(=O)CO (configuration not stated) | 35.5 µM [rising, single point] | 
28 | COc1ccc(C(=O)NC(=S)NC2CCCCC2)cc1 | 2.82 µM [rising, partial curve, poor fit] | 
29 | COCCn1nnnc1C(c1ccc(OC)c(OC)c1)N1CCN(c2nc3ccccc3s2)CC1 (configuration not stated) | 2.06 µM [falling, partial curve, poor fit] | 
30 | N#CCCS(=O)(=O)c1nnnn1-c1ccccc1 | 10 µM [falling, partial curve] | 14.1 µM [rising, single point]
31 | Cc1cc2oc(=O)cc(C)c2cc1NC(=O)CCl | 12.6 µM [falling, partial curve, poor fit] | 
32 | Cc1cc2cc(CNC(=O)C3CC3)ccc2n1C | 7.08 µM [rising, full curve] | 
33 | COc1ccc(CCn2c(NN)nc3c2c(=O)[nH]c(=O)n3C)cc1 | 31.6 µM [rising, single point] | 
34 | Cc1ccc(NC(=O)C2CC(=O)N(C(C)c3ccccc3)C2)cc1 (configuration not stated) | 23.1 µM [rising, single point] | 
35 | C[C@@H]1CN([C@H](C)CO)C(=O)c2cc(NC(=O)Nc3ccc(F)cc3)ccc2O[C@H]1CN(C)C(=O)Nc1ccc(C(F)(F)F)cc1 | 11.6 µM [rising, partial curve] | 
36 | CCOC(=O)c1c(C)nc2sc(C(N)=O)c(N)c2c1-c1ccc(OC)cc1 | 29.1 µM [falling, single point] | 
37 | CN1CCN(CC(O)COC(c2ccc(Cl)cc2)c2ccc(Cl)cc2)CC1 (configuration not stated) | 15.8 µM [falling, single point] | 
38 | Cc1cccc(OCC(=O)O/N=C(\N)c2ccccn2)c1C | 12.6 µM [falling, single point] | 
39 | CCOc1ccc(S(=O)(=O)N(CC)CC(=O)N2CCCC2)cc1C | 35.5 µM [rising, single point] | 
40 | O=C(Nc1nccs1)c1ccc(-c2ccccc2Cl)o1 | 20.6 µM [falling, single point] | 
41 | CCOC(=O)Cc1ccc2sc(-c3ccccc3)nc2c1 | 16.4 µM [falling, single point] | 
42 | COc1ccc(Oc2ccc(C(F)(F)F)cc2NC(=O)c2ccc(F)cc2)cc1 | 5.62 µM [rising, full curve, poor fit] | 
43 | Cc1ccc(/C=N/NC(=O)c2ccc3nc[nH]c3c2)s1 | 8.91 µM [falling, partial curve, poor fit] | 
44 | Cc1cc(=O)c2cc(NC(=O)c3ccccc3Cl)ccc2[nH]1 | 3.55 µM [falling, full curve] | 

Row | SMILES | AC50 [1] | AC50 [2]
45 | O=C(COC(=O)CC(c1ccccc1)c1ccccc1)Nc1ccc(F)c(F)c1 | 11.2 µM [falling, single point] | 
46 | CC(=O)N1CC(C)Sc2ccc(S(=O)(=O)NCc3ccc(Cl)cc3)cc21 (configuration not stated) | 6.31 µM [falling, partial curve, poor fit] | 
47 | CCC(=O)NNc1ncnc2c1cnn2-c1cccc(C)c1 | 0.562 µM [falling, full curve, poor fit] | 
48 | O=C(Nc1ccc(Br)cc1)c1ccc(N2C(=O)C3CC=CCC3C2=O)cc1 (configuration not stated) | 6.51 µM [falling, partial curve, poor fit] | 
49 | COc1ccc(COC(=O)C2=C(C)NC(=O)NC2c2cc(OC)ccc2OC)cc1 (configuration not stated) |  | 12.6 µM [falling, partial curve, poor fit]
50 | FC(F)(F)c1cnc(Oc2ccccc2-c2nnco2)c(Cl)c1 | 11.6 µM [rising, single point] | 
51 | O=C(NNC(=O)c1ccccc1O)c1ccco1 | 7.94 µM [falling, partial curve] | 
52 | O=C(Cn1cc[n+](CC(=O)c2ccc(Cl)cc2Cl)c1)c1ccc(Cl)cc1Cl | 35.5 µM [falling, single point] | 
53 | O=C(CCC(=O)N(CC(=O)NC1CCCCC1)Cc1ccco1)Nc1nccs1 | 35.5 µM [falling, partial curve, poor fit] | 
54 | Cc1ccc(S(=O)(=O)c2c(N)n(Cc3ccco3)c3nc4ccccc4nc23)cc1C | 8.2 µM [falling, partial curve] | 
55 | COc1ccccc1NC(=O)C(=O)Nc1ccccn1 | 0.398 µM [falling, full curve] | 
56 | Cc1ccc(NC(=O)CN2c3cccc4cccc(c34)S2(=O)=O)cc1 | 18.4 µM [falling, partial curve, poor fit] | 
57 | CC(C)c1ccc(NC(=O)[C@H](NC(=O)[C@@H]2Cc3ccccc3CN2)c2ccccc2)cc1 | 3.55 µM [rising, single point] | 
58 | Cn1c(-c2ccccc2)c(C=O)c2ccccc21 | 6.31 µM [falling, single point] | 
59 | O=C(CCc1nnc2ccc(NCc3ccco3)nn12)Nc1ccc(F)cc1 | 35.5 µM [falling, single point] | 
60 | COc1cc(NC(=O)c2cc(Cl)nnc2Cl)cc(OC)c1OC | 17.8 µM [falling, single point] | 
61 | Brc1cc(Br)c2nc(-c3ccc(N4CCOCC4)cc3)ccc2c1 | 14.6 µM [rising, partial curve, poor fit] | 
62 | O=C(COc1ccccc1)N=C1SC2CS(=O)(=O)CC2N1c1cccc(F)c1 (configuration not stated) | 0.316 µM [rising, full curve, poor fit] | 
63 | c1ccc2c(N3CCCCC3)nnc(N3CCCCC3)c2c1 | 18.4 µM [rising, single point] | 
64 | Cc1ccc2c(c1)c(C)c(C)n2CC(O)Cn1nnc2ccccc21 (configuration not stated) | 17.8 µM [falling, partial curve, poor fit] | 
65 | CCOc1ncccc1C(=O)Nc1cccc(S(=O)(=O)NC2=NCCC2)c1 | 1.46 µM [falling, partial curve] | 
66 | Cc1nc(-c2ccc(C(=O)Nc3cccc(Br)c3)cc2)cs1 | 35.5 µM [falling, single point] | 

Laid out differently: results already given.
Cn1c(-c2ccccc2)c(C=O)c2ccccc21
  AC50 [1]: 6.31 µM [falling, single point]
Cc1ccc2c(c1)c(C)c(C)n2CC(O)Cn1nnc2ccccc21 (configuration not stated)
  AC50 [1]: 17.8 µM [falling, partial curve, poor fit]
